Structures are written as SMILES. This is one part of the list. Shown are side measurements of this screen, not its main read-out; they come without a call. Most of these compounds were active or inconclusive in the main read-out, so they are no random draw. Words in brackets tell the shape of the fitted curve; partial curves, single points and poor fits give uncertain potencies.

Drawing on PubChem BioAssay AID2685 (National Center for Advancing Translational Sciences (NCATS), 2010), this text covers cell number change and AC50 for 40 molecules.

The assay can be described thus: qHTS Assay for Lipid Storage Modulators in Drosophila S3 Cells.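 On cell number change: cells counted by Cell Tracker Red CMTPX staining in the red channel.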 The note with it: BODIPY lipid droplet fluorescence, 18-24 h; for cell number change: measured here: cell count max response, cells fed with added oleic acid. The procedure, abridged: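 Drosophila S3 cells got compounds at several concentrations plus oleic acid (400 uM solution). Laser-scanning cytometry with 488 nm excitation read lipid droplets at 500-530 nm and cells at 575-640 nm. Percent activity was relative to 20 uM Triacsin C.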
(qHTS replaces the single test concentration by a dilution series.)

Where [1] appears, read: measured here: lipid fluorescence (Fed channel) AC50, cells fed with added oleic acid.
Setting [2] is: measured here: cell number channel AC50, cells fed with added oleic acid.

What is called AC50 is the concentration at which the activity in the assay is half-maximal. With `OCC1(CCOc2ccccc2)CCN(Cc2nc3ccc(F)cc3[nH]2)CC1`, the cell number change is 5.61%. Also, the AC50 under setting [1] is 29.1 µM [rising, single point].
Regarding `CN(C)C(CNC(=O)CSc1nc2ccccc2c(=O)n1Cc1ccco1)c1ccccc1` (configuration not stated), the cell number change stood at 29.3%. The AC50 under setting [1] is 32.6 µM [rising, single point].
Regarding `Cc1cc(C(=O)CSc2nn3c(=O)c(C(C)(C)C)nnc3s2)c(C)n1-c1ccc(F)cc1`, the cell number change was determined as 1.1%. Further, the AC50 under setting [1] was 6.51 µM [falling, single point].
`O=C(Nc1ccccc1C(=O)N1CCCCC1)c1ccccc1C(F)(F)F`: the cell number change came out at 25.1%. Also, the AC50 under setting [1] is 16.4 µM [rising, partial curve].
Regarding `COC(=O)CSc1nnc(-c2cccnc2)n1-c1cc(OC)cc(OC)c1`, the cell number change was 0.884%. Under setting [1], the AC50 was 0.651 µM [rising, full curve, poor fit].
For `O=C(COc1ccccc1)Nc1ncccn1`, the cell number change was -36.4%. Also, the AC50 under setting [2] is 3.66 µM [falling, full curve]. The AC50 under setting [1] was 3.26 µM [falling, partial curve, poor fit].
For the molecule `Cc1ccc(-n2c(N)c(C(=O)N3CCOCC3)sc2=S)c(C)c1`, the cell number change turned out to be 27.6%. Also, the AC50 under setting [1] is 0.82 µM [falling, full curve].
Regarding `COc1ccc(/C=C2\SC(=S)N(CC(=O)N(C)C3CCS(=O)(=O)C3)C2=O)cc1` (configuration not stated), the cell number change worked out at 18.5%. For the same molecule, the AC50 under setting [1] was 23.1 µM [rising, single point].
In the case of `Cc1cccc(S(=O)(=O)C(C#N)c2nc3ccccc3nc2N2CCCC2)c1` (configuration not stated), the cell number change was -13.4%. Besides, the AC50 under setting [1] is 0.184 µM [rising, full curve, poor fit].
As to `Cc1ccc(NC(=O)CNC(=O)c2cccs2)cc1S(=O)(=O)Nc1ccc(Cl)cc1`, the cell number change is 8.99%. Further, under setting [1], the AC50 was 0.82 µM [rising, full curve, poor fit].
In the case of `Cc1ccccc1NC(=O)CSc1nnc(C)c(=O)[nH]1`, the cell number change worked out at 27.4%.
Consider `CC(C)Cn1c(NCCN(C)C)nc2c1c(=O)[nH]c(=O)n2C`, for which the cell number change is -39.9%. Also, under setting [2], the AC50 was 1.03 µM [falling, partial curve].
Regarding `CC(C)(C)OC(=O)C1C(=O)CC(C)(O)C(C(=O)OC(C)(C)C)C1c1cccnc1` (configuration not stated), the cell number change is 12.5%. Further, the AC50 under setting [1] was 0.291 µM [rising, full curve].
On to `CC(=O)c1cc(C)ccc1OC(=O)CCN1C(=O)C2C3c4ccccc4C(c4ccccc43)C2C1=O` (configuration not stated), for which the cell number change is -3.53%. Under setting [1], the AC50 is 0.103 µM [falling, full curve, poor fit].
As for `COc1c(-c2ccc([N+](=O)[O-])cc2[N+](=O)[O-])c(=O)n(C)c(=O)n1C`, the cell number change stood at 28.7%. For the same molecule, the AC50 under setting [1] is 6.51 µM [rising, full curve].
As for `O=C(COc1ccccc1CNCc1ccccc1)Nc1ccccc1`, the cell number change was 59.2%. Under setting [2], the AC50 was 9.2 µM [rising, partial curve]. Besides, under setting [1], the AC50 is 14.6 µM [rising, partial curve].
Consider `O=C(NCc1n[nH]c(=S)n1-c1ccc(Br)cc1)c1ccc(S(=O)(=O)N2CCCCC2)cc1`, for which the cell number change is 8.75%.
Still for that read-out and setting: for `CCOC(=O)c1c(Nc2ccccc2N)cc(C)nc1C` the value was 6.61%.
Same read-out and setting: for `COC(=O)CN(C#N)c1nc(NC(C)C)nc(NC(C)C)n1` the value was 24.3%.
On to `O=C(Nc1ccc(F)cc1F)N1CCC(c2nc3ccccc3o2)CC1`, for which the cell number change is -26.3%. The AC50 under setting [1] is 1.3 µM [falling, full curve, poor fit].
On to `CCOCCc1c(O)nc(SCC(=O)N2CCOCC2)[nH]c1=O`, for which the cell number change was -1.32%. Moreover, the AC50 under setting [1] is 5.62 µM [rising, single point].
As for `Cc1ccc(OCC(=O)N2CCCCCC2)c(C)c1`, the cell number change was -3.43%. The AC50 under setting [1] is 29.1 µM [rising, single point].
Take `CCOc1ccccc1NC(=O)c1cccc(NC(=O)C(C)C)c1`: the cell number change is -41.3%.
For the molecule `Cc1nc2ccccc2c2oc(C(=O)NCc3ccccn3)cc12`, the cell number change stood at 212%. The AC50 under setting [2] was 0.366 µM [rising, full curve]. The AC50 under setting [1] is 0.326 µM [rising, full curve].
`CC1CCCC(C)N1C(=O)Cn1c(=O)sc2ccccc21` (configuration not stated): the cell number change came out at 16.4%. Further, under setting [1], the AC50 is 1.3 µM [rising, full curve].
As for `COc1ccc(-c2nc3ccccc3nc2-c2ccc(OC)c(OC)c2)cc1OC`, the cell number change is -5.41%.
For `O=C(NCCCNC(=O)c1ccccn1)c1ccc(Cl)cc1`, the cell number change turned out to be 6.58%.
For the molecule `COCCNC(=O)c1ccccc1NS(=O)(=O)c1ccc(Br)s1`, the cell number change was 47%. Also, the AC50 under setting [2] is 4.61 µM [rising, partial curve].
`Cc1ccccc1N1CCN(c2ccc(NC(=O)C3CCCCC3C(=O)O)cc2)CC1` (configuration not stated): the cell number change was -22.7%. In addition, the AC50 under setting [1] is 6.51 µM [rising, single point].
Regarding `O=C(CN(Cc1ccccc1Cl)C(=O)CN1C(=O)CSc2ccccc21)NC1CC1`, the cell number change was 0.952%.
Consider `CC(=O)Nc1ccc(N)cc1`, for which the cell number change was 6.33%. The AC50 under setting [1] was 0.58 µM [falling, partial curve].
As for `CCCC1C(=O)N(c2ccccc2)C1c1ccccc1` (configuration not stated), the cell number change is 0.828%. Further, under setting [1], the AC50 is 6.51 µM [rising, single point].
Consider `CC(C)n1c(O)c(/C=C2\C=NN=C2c2ccccc2)sc1=S`, for which the cell number change was -59%. Further, the AC50 under setting [2] was 16.4 µM [falling, single point]. The AC50 under setting [1] was 29.1 µM [falling, single point].
As to `CC1=C(C(=O)N(C)C)C(c2cccc(Cl)c2)NC(=O)N1` (configuration not stated), the cell number change was -34.3%. For the same molecule, the AC50 under setting [2] was 14.6 µM [falling, single point].
For `O=C(O)CSc1nnc(Cn2nnc3ccccc32)n1CCc1ccccc1`, the cell number change was -17.9%. For the same molecule, the AC50 under setting [1] is 2.06 µM [falling, full curve, poor fit].
Take `O=C(Nc1ccc(S(=O)(=O)N2CCCC2)cc1)c1cncc(Br)c1`: the cell number change is -11.5%. The AC50 under setting [2] was 0.00411 µM [falling, full curve, poor fit]. Also, the AC50 under setting [1] is 0.00517 µM [falling, full curve, poor fit].
For `N#C/C(=C\c1cn(Cc2cccc(F)c2)c2ccccc12)C(=O)NCc1ccco1`, the cell number change is 5.71%. Also, the AC50 under setting [1] is 4.61 µM [rising, single point].
Consider `CN(C)c1cc2c(cc1NC(=O)c1ccccc1Cl)n(C)c(=O)n2C`, for which the cell number change is -14.4%. Further, the AC50 under setting [1] is 1.03 µM [falling, full curve, poor fit].
`C=CCN1C(=O)C(C)(C)N(C(=O)c2cccc([N+](=O)[O-])c2)c2ccccc21`: the cell number change was -15.7%. In addition, the AC50 under setting [1] was 6.51 µM [rising, single point].
In the case of `O=C(c1ccccc1[N+](=O)[O-])N1N=C(c2ccccc2)CC1(O)C(F)(F)F` (configuration not stated), the cell number change is -9.34%. In addition, the concentration at half-maximal activity (AC50) under setting [1] is 23.1 µM [falling, single point].
